These are yes or no findings as the source states them, for the method shown. Some binding calls cover weakened binding; strength is not graded here.
Tests used:
Test in all cases: peptide or protein array; HuProt human proteome microarray; 5 ug/5 ml biotin-labelled LUBAC or OTULIN in solution, 1 h at room temperature; Cy5-streptavidin, scanned at 635 nm; BSA as negative control; hits: Z-score >= 3 and I_(Mean_Ratio) >= 1.4; both purified
AKR1C3 (human) = target: T1, AKR1C3 (human) (UniProt P42330)
T1 sequence: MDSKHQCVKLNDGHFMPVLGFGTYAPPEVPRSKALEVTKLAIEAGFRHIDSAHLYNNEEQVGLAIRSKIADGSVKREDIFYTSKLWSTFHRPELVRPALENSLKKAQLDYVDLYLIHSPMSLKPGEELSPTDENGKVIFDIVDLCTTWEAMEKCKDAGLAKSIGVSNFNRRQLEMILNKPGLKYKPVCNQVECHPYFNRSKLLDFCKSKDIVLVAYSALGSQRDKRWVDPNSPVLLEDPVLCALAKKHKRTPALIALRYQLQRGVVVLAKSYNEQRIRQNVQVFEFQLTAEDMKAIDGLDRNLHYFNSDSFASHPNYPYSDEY

The chains behind the UniProt entries cited, without tags or fusion partners.
UniProt Q9BTL3: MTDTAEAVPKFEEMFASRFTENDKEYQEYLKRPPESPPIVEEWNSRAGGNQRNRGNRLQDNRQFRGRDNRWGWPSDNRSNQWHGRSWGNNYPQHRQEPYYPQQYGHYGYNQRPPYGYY
UniProt Q8WUD1: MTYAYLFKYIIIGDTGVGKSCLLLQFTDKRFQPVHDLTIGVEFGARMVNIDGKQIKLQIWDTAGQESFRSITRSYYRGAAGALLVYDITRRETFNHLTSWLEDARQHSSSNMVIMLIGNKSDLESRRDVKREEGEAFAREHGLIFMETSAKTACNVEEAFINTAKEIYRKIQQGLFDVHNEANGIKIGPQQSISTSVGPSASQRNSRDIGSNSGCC
UniProt Q04726: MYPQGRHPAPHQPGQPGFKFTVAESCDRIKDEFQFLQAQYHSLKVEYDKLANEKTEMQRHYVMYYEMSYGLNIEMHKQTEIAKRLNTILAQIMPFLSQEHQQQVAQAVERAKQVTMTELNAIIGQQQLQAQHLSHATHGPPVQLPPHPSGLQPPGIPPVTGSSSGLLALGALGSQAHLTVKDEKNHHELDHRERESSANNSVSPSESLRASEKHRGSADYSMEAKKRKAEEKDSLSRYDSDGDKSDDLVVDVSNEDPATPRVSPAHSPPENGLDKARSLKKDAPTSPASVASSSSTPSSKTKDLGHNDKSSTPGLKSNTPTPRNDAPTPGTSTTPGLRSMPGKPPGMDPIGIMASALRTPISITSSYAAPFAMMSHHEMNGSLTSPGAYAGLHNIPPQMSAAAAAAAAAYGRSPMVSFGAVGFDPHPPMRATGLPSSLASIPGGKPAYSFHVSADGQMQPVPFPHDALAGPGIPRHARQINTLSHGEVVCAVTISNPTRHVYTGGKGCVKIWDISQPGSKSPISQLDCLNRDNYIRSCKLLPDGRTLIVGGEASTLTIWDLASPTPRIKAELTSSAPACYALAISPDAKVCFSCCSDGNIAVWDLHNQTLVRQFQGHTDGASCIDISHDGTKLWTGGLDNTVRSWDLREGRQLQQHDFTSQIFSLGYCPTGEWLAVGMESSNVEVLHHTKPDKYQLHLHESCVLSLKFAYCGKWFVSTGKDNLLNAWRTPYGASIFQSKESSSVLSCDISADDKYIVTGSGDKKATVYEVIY

ARPC1B (human) = ARPC1B (human) (UniProt O15143)
FAM103A1 (human) = FAM103A1 (human) (UniProt Q9BTL3)
FKBP1A (human) = FKBP1A (human) (UniProt P62942)
QKI (human) = target: T2, QKI (human) (UniProt Q96PU8)
T2 sequence: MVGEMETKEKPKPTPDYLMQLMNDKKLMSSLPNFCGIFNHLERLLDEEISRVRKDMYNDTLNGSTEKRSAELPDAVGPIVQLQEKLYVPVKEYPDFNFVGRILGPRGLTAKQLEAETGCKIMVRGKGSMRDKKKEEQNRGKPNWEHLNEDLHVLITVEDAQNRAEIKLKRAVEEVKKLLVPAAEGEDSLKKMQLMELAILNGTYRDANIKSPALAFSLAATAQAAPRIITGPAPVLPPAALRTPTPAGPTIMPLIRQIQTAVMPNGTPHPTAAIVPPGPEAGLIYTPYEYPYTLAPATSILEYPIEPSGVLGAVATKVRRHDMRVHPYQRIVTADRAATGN

RAB2B (human) = RAB2B (human) (UniProt Q8WUD1)
SRA1 (human) = target: T3, SRA1 (human) (UniProt Q9HD15)
T3 sequence: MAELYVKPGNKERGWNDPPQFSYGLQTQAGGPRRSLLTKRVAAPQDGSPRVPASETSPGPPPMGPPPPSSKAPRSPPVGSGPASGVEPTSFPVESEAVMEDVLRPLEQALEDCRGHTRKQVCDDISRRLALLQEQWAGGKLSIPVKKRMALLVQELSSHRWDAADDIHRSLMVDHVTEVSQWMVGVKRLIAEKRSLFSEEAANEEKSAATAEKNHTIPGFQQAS

TLE3 (human) = TLE3 (human) (UniProt Q04726)
ZNF385B (human) = target: T4, ZNF385B (human) (UniProt Q569K4)
T4 sequence: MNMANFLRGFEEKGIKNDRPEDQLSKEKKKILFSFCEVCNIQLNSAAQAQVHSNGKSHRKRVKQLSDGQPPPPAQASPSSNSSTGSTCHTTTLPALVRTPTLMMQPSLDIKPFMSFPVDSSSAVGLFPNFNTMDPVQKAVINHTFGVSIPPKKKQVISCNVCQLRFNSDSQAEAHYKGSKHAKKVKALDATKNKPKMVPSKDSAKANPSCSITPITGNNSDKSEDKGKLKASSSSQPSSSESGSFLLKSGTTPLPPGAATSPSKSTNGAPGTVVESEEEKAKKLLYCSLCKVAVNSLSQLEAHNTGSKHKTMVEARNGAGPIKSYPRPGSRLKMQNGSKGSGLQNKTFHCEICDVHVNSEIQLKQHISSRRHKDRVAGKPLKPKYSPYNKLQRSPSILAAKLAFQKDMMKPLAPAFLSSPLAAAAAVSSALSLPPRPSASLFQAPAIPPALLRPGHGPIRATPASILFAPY

binding (AKR1C3 (human)): binds | binding (ARPC1B (human)): binds | binding (FAM103A1 (human)): binds | binding (FKBP1A (human)): binds | binding (QKI (human)): binds | binding (RAB2B (human)): binds | binding (SRA1 (human)): binds | binding (TLE3 (human)): binds | binding (ZNF385B (human)): binds
Substance: linear ubiquitin chain assembly complex (LUBAC), purified as HIS-tagged HOIP with the subunit HOIL-1, biotin-labelled (from UniProt Q96EP0 1-1072; Q9BYM8 1-510)
